Assay results reported in the supplement of paper PMC10849652.
Some of the results follow.

By UniProt entry, the sequences of proteins in these tests, tags left out. Where a name states a change or a piece, a line headed by the entry shows the natural chain unless it says otherwise.
UniProt Q92828: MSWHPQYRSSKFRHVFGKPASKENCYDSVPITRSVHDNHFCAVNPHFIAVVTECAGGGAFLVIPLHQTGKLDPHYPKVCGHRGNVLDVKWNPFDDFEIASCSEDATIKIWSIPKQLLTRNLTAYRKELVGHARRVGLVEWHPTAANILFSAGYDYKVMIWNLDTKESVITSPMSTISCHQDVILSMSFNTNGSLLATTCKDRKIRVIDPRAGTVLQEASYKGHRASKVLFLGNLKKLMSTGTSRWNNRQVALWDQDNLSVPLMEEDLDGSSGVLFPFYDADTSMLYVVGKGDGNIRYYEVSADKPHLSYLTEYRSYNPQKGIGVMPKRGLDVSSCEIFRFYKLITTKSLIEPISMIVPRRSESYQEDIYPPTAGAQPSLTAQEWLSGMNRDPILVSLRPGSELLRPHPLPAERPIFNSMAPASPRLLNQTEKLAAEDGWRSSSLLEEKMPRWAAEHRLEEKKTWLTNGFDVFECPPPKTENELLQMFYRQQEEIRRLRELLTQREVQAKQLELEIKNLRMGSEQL
UniProt Q9Y2Z9: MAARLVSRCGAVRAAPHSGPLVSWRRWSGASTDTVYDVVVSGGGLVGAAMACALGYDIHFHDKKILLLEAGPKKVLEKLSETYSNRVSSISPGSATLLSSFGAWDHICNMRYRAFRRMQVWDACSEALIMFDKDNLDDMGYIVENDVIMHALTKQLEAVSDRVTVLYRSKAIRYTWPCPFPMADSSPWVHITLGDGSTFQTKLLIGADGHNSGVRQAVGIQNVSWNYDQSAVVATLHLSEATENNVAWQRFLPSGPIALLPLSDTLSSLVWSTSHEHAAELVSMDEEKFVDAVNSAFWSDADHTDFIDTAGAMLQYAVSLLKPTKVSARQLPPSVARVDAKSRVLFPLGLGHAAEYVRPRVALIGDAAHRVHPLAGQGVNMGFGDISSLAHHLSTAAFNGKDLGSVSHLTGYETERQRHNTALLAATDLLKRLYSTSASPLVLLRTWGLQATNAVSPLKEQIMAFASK
UniProt O75131: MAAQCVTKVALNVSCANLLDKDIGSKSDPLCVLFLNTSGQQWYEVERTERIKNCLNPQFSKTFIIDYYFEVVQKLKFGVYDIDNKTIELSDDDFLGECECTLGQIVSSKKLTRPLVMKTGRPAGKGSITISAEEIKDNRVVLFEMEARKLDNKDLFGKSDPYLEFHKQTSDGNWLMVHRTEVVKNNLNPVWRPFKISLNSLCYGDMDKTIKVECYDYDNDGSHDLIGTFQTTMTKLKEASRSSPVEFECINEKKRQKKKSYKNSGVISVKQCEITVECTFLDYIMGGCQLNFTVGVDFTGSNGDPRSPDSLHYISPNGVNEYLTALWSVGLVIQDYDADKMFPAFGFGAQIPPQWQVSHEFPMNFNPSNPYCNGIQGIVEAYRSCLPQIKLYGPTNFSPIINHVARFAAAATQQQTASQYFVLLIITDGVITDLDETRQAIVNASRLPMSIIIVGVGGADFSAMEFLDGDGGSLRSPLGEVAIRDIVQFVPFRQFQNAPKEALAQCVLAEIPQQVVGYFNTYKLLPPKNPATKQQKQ
UniProt P15954, whole entry, looked up: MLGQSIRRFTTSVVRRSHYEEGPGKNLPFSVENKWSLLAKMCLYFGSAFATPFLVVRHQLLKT
UniProt Q99627: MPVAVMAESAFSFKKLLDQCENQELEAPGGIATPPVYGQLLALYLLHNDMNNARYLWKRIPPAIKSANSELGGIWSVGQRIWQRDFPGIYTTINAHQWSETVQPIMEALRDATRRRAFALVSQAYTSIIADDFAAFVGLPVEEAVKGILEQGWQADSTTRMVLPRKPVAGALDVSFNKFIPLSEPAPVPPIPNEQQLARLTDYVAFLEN
UniProt P31146: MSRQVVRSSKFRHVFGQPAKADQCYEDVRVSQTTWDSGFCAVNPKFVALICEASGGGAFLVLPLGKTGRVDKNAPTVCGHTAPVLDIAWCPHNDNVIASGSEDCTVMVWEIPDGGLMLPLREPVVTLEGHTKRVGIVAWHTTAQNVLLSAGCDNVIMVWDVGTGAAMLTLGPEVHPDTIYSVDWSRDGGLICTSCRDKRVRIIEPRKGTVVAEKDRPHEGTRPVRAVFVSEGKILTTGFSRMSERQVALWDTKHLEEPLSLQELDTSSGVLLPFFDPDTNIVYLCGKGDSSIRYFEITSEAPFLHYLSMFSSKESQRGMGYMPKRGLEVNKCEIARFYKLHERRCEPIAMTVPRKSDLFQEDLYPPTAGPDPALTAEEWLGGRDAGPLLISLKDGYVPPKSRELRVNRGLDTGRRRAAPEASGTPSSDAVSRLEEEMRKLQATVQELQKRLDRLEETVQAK
UniProt Q9UP83: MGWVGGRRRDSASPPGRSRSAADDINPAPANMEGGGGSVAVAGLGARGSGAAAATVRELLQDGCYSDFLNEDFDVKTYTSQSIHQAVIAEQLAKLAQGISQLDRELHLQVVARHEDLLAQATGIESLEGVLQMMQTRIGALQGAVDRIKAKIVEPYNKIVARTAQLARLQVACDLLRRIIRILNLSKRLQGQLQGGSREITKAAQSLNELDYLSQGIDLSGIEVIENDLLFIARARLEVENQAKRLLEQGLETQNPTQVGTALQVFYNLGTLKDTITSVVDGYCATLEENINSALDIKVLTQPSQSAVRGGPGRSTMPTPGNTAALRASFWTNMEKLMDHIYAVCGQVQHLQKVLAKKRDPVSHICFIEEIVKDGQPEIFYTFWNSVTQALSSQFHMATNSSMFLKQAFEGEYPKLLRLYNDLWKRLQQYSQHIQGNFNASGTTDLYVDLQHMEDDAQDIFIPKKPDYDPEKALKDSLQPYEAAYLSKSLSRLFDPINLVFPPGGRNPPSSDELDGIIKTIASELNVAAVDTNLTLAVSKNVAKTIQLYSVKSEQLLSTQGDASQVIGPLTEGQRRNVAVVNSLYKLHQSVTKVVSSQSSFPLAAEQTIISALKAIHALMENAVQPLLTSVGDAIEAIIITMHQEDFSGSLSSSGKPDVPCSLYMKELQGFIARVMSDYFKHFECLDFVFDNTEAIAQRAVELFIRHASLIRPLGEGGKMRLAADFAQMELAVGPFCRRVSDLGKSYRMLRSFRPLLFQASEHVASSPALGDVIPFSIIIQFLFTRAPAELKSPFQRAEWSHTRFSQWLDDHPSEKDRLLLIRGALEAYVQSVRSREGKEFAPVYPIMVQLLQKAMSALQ
UniProt Q9Y678: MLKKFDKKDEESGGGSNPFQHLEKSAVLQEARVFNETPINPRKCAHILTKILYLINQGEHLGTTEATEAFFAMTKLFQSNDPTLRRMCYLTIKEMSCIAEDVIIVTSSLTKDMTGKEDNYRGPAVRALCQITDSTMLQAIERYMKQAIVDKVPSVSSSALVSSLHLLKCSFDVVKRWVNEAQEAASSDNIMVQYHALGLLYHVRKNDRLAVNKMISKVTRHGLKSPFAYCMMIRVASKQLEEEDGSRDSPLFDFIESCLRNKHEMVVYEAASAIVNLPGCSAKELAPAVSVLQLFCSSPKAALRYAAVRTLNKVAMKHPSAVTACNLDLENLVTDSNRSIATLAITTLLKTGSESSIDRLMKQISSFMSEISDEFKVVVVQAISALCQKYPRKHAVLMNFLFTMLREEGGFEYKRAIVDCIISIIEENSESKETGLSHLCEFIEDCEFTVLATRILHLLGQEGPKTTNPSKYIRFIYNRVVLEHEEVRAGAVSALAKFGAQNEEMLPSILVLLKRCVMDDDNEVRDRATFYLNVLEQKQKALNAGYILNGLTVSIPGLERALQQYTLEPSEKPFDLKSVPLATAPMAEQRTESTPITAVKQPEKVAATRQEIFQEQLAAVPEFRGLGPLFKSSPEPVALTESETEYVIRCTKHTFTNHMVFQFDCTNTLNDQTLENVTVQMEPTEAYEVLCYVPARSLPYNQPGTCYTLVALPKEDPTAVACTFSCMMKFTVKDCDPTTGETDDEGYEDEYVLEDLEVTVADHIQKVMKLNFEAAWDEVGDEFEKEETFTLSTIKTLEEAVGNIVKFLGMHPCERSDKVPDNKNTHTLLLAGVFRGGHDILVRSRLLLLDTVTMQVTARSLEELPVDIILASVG
UniProt Q8N129: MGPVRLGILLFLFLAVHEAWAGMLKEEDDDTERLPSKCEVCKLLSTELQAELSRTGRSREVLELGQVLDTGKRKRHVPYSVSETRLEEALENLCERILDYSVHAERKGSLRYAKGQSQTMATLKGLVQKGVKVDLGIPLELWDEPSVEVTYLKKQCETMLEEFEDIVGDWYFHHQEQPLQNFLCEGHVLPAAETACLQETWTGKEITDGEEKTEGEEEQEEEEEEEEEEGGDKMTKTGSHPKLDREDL
UniProt Q9Y6N1: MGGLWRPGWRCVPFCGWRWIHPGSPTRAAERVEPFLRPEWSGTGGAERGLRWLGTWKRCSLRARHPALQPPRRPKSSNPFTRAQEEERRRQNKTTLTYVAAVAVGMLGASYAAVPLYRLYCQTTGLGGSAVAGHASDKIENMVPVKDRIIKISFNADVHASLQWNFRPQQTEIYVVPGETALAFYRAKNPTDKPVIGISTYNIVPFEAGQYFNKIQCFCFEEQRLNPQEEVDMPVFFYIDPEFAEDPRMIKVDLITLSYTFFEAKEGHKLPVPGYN
UniProt Q9UNS2: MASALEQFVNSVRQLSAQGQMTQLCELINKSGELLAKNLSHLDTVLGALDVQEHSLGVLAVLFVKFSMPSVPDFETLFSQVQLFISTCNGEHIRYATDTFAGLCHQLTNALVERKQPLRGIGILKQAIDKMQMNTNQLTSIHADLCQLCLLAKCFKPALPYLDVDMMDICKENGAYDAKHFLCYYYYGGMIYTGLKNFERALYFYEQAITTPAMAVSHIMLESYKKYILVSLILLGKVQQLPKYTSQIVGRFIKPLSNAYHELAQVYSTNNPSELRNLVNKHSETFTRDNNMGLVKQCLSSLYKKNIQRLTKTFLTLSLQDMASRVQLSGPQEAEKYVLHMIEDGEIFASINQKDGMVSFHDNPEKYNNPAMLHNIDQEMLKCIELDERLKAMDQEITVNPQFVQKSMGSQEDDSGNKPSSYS
UniProt Q9BSW2: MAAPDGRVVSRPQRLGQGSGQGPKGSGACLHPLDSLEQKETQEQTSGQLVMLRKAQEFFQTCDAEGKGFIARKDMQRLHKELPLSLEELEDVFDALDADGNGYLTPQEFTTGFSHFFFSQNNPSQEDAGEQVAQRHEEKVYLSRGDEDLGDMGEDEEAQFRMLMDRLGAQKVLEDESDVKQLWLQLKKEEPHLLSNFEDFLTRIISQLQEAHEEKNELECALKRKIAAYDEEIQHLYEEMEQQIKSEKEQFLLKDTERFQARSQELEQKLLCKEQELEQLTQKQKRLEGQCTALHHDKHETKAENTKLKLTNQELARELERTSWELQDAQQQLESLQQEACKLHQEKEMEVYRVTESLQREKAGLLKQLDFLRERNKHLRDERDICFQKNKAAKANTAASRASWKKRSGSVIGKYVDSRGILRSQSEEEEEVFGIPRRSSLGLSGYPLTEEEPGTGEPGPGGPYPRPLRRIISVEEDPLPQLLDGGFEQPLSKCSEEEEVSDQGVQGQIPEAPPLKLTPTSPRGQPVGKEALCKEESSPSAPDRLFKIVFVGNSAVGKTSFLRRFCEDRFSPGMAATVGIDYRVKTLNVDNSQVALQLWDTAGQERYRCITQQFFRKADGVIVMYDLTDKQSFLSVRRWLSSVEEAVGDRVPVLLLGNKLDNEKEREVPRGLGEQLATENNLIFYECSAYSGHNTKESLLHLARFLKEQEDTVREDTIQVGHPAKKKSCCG
UniProt P09669, whole entry, looked up: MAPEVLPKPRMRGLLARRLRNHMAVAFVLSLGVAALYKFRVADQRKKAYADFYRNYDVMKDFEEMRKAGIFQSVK
UniProt Q9BT09: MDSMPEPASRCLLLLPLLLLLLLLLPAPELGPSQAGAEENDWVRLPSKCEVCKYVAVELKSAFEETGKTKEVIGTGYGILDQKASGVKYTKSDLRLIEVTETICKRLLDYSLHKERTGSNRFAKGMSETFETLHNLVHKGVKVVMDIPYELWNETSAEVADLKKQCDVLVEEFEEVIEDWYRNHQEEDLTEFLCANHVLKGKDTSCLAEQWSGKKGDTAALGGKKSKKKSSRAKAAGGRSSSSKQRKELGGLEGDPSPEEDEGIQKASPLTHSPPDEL

Legend:
Assay in all cases: log2 fold change, soluble protein after heating vs DMSO (PISA); higher = thermal stabilisation; K562 lysate, 10 uM; active = over 0.2 and 3.5 SD of the protein, either way, in both replicates (recomputed)
[1] = compound: CN1CC[C@H](c2c(O)cc(O)c3c(=O)cc(-c4ccccc4Cl)oc23)[C@H](O)C1 [alvocidib]
Method in brief: (§1)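 A 30 min treatment with 10 μM compound was applied to crude K562 extract at 1 mg/mL protein in PBS pH 7.4 with 1 mM MgCl2. Heating for 3 min spanned 48°C-58°C, after which aliquots were pooled, adjusted to 0.5% NP-40 at 4°C and spun at 21,000xg for 90 min. TMTpro 16plex LC-MS/MS of the supernatant, with channel sums equalised, gave values recorded as log-two fold change in thermal stability against solvent controls, from duplicates.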

[2] = compound: CN1CCc2c(c3ccccc3n2Cc2ccc(C(=O)NO)cc2)C1 [Tubastatin A]
Method in brief: as §1

[3] = compound: CNC(=O)C1=CC=CC=C1NC2=NC(=NC=C2Cl)NC3=C(C=C(C=C3)N4CCOCC4)OC
Method in brief: as §1

[4] = compound: CNC(=O)c1ccc(Nc2ncc(C(F)(F)F)c(NCc3nccnc3N(C)S(C)(=O)=O)n2)cc1 [defactinib]
Method in brief: as §1

[5] = compound: CNc1nc(-c2ccc3c(N)n[nH]c3c2)cc(N2C[C@@H](C(=O)NC3CCCCC3)CC[C@H]2C)n1
Method in brief: as §1

[6] = compound: COC(=O)N[C@@H](C)CNc1nccc(-c2cn(C(C)C)nc2-c2cc(Cl)cc(NS(C)(=O)=O)c2F)n1 [encorafenib]
Method in brief: as §1

[7] = compound: COC(=O)[C@H](CCSC)NC(=O)C1=C(C=C(C=C1)NC[C@H](CS)N)C2=CC=CC=C2
Method in brief: as §1

[8] = compound: COc1cc(Nc2ncc3c(n2)-c2ccc(Cl)cc2C(c2c(F)cccc2OC)=NC3)ccc1C(=O)O [alisertib]
Method in brief: as §1

[9] = compound: COc1cc2nc(-c3cc(F)ccc3O)nc(N[C@@H]3CNC[C@H]3C(C)(C)O)c2cc1OC
Method in brief: as §1

[10] = compound: COc1cc2ncnc(Nc3ccc(F)c(Cl)c3)c2cc1OCCCN1CCOCC1 [gefitinib]
Method in brief: as §1

[11] = compound: CS(=O)(=O)CCNCc1ccc(-c2ccc3ncnc(Nc4ccc(OCc5cccc(F)c5)c(Cl)c4)c3c2)o1 [lapatinib]
Method in brief: as §1

[12] = compound: CS(=O)(=O)N1CCN(Cc2cc3nc(-c4cccc5[nH]ncc45)nc(N4CCOCC4)c3s2)CC1 [pictilisib]
Method in brief: as §1

[13] = compound: C[C@@H](Oc1cc(-c2cnn(C3CCNCC3)c2)cnc1N)c1c(Cl)ccc(F)c1Cl [crizotinib]
Method in brief: as §1

[14] = compound: C[C@H](C1=CC=C(C=C1)C(=O)NC2=C3C=CNC3=NC=C2)N
Method in brief: as §1

[15] = compound: C[C@H](Nc1ncnc2nc[nH]c12)c1cc2cccc(Cl)c2c(=O)n1-c1ccccc1 [duvelisib]
Method in brief: as §1

[16] = compound: Cc1cc(Nc2cc(CN3CCOCC3)c3nc(C)c(Cc4ccc(Cl)cc4F)n3n2)n[nH]1 [gandotinib]
Method in brief: as §1

[17] = compound: Cc1cc(Nc2cc(N3CCN(C)CC3)nc(Sc3ccc(NC(=O)C4CC4)cc3)n2)n[nH]1 [tozasertib]
Method in brief: as §1

[18] = compound: Cc1ccc(-n2nc(C(C)(C)C)cc2NC(=O)Nc2ccc(OCCN3CCOCC3)c3ccccc23)cc1 [doramapimod]
Method in brief: as §1

[19] = compound: Cc1ccc(NC(=O)c2ccc(CN3CC[C@H](N(C)C)C3)c(C(F)(F)F)c2)cc1Nc1nccc(-c2cncnc2)n1 [bafetinib]
Method in brief: as §1

[20] = compound: Cc1cccc(CC(=O)N2CCc3c2ccc(-c2cn(C)c4ncnc(N)c24)c3F)n1
Method in brief: as §1

Target	log2 fold change [1]	log2 fold change [2]	log2 fold change [3]	log2 fold change [4]	log2 fold change [5]	log2 fold change [6]	log2 fold change [7]	log2 fold change [8]	log2 fold change [9]	log2 fold change [10]	log2 fold change [11]	log2 fold change [12]	log2 fold change [13]	log2 fold change [14]	log2 fold change [15]	log2 fold change [16]	log2 fold change [17]	log2 fold change [18]	log2 fold change [19]	log2 fold change [20]
CORO2A (UniProt Q92828)	inactive: 0.087	inactive: -0.097	inactive: -0.001	inactive: -0.021	inactive: 0.016	inactive: 0.008	inactive: 0.009	inactive: 0.018	inactive: 0.003	inactive: -0.011	inactive: -0.018	inactive: -0.112	inactive: -0.057	inactive: -0.014	inactive: 0.041	inactive: 0.029	inactive: -0.006	inactive: 0.07	inactive: -0.107	inactive: -0.103
COQ6 (UniProt Q9Y2Z9)	inactive: -0.042	inactive: -0.063	inactive: 0.039	inactive: 0.071	inactive: 0.006	inactive: -0.082	inactive: 0.088	inactive: -0.029	inactive: 0.004	inactive: -0.063	inactive: 0.022	inactive: 0.078	inactive: 0.02	inactive: 0.034	inactive: 0.002	inactive: -0.032	inactive: 0.003	inactive: -0.045	inactive: 0.074	inactive: 0.001
COLGALT1 (UniProt Q8NBJ5)	inactive: -0.021	inactive: -0.037	inactive: 0.016	inactive: 0.02	inactive: 0.008	inactive: 0.035	inactive: -0.018	inactive: -0.007	inactive: 0.021	inactive: 0.031	inactive: -0.023	inactive: -0.04	inactive: -0.012	inactive: -0.023	inactive: -0.016	inactive: 0.02	inactive: 0.026	inactive: 0.006	inactive: 0.002	inactive: 0.049
CPNE3 (UniProt O75131)	inactive: -0.081	inactive: -0.069	inactive: -0.001	inactive: 0.045	inactive: 0.002	inactive: 0.029	inactive: -0.037	inactive: -0.022	inactive: -0.016	inactive: 0.005	inactive: 0.024	inactive: 0.005	inactive: -0.029	inactive: -0.099	inactive: 0.028	inactive: 0.074	inactive: 0.014	inactive: 0.014	inactive: 0.007	inactive: 0.089
COX7C (UniProt P15954)	inactive: 0.154	inactive: 0.05	inactive: -0.016	inactive: 0.1	inactive: -0.061	inactive: -0.144	inactive: 0.321	inactive: 0.012	inactive: -0.093	inactive: -0.068	inactive: -0.038	inactive: 0.075	inactive: 0.001	inactive: 0.284	inactive: 0.018	inactive: -0.073	inactive: 0.031	inactive: 0.033	inactive: 0	inactive: -0.064
COPS8 (UniProt Q99627)	inactive: -0.006	inactive: 0.069	inactive: -0.005	inactive: 0.03	inactive: 0.084	inactive: 0.019	inactive: 0.053	inactive: 0.045	inactive: 0.002	inactive: -0.077	inactive: 0.022	inactive: -0.002	inactive: 0	inactive: -0.002	inactive: 0.018	inactive: 0.004	inactive: 0.027	inactive: 0.014	inactive: -0.01	inactive: 0.009
CORO1A (UniProt P31146)	inactive: 0	inactive: -0.02	inactive: 0.013	inactive: -0.034	inactive: 0.037	inactive: -0.051	inactive: 0.144	inactive: -0.018	inactive: -0.021	inactive: -0.037	inactive: -0.018	inactive: -0.058	inactive: -0.008	inactive: -0.069	inactive: 0.038	inactive: 0.037	inactive: 0.089	inactive: 0.009	inactive: -0.028	inactive: -0.001
COG5 isoform 2 (UniProt Q9UP83)	inactive: 0.02	inactive: -0.051	inactive: 0.04	inactive: -0.005	inactive: -0.015	inactive: -0.025	inactive: -0.037	inactive: -0.012	inactive: -0.053	inactive: 0.027	inactive: -0.059	inactive: -0.03	inactive: -0.025	inactive: 0.027	inactive: 0.007	inactive: -0.071	inactive: 0.013	inactive: -0.024	inactive: -0.034	inactive: 0.062
COPG1 (UniProt Q9Y678)	inactive: -0.008	inactive: 0.011	inactive: -0.008	inactive: 0.007	inactive: 0.004	inactive: -0.001	inactive: -0.019	inactive: 0.004	inactive: 0.011	inactive: -0.017	inactive: 0.003	inactive: -0.005	inactive: -0.007	inactive: -0.003	inactive: 0.006	inactive: -0.017	inactive: -0.012	inactive: 0.004	inactive: -0.03	inactive: 0.011
CNPY4 (UniProt Q8N129)	inactive: -0.1	inactive: 0.067	inactive: -0.096	inactive: -0.045	inactive: -0.043	inactive: -0.075	inactive: 0.072	inactive: 0.039	inactive: 0.003	inactive: -0.092	inactive: 0.035	inactive: 0.021	inactive: -0.15	inactive: -0.151	inactive: -0.119	inactive: 0.085	inactive: 0.022	inactive: -0.045	inactive: 0.03	inactive: 0.159
CNOT4 isoform 6 (UniProt O95628)	inactive: 0.015	inactive: -0.011	inactive: -0.009	inactive: 0.001	inactive: -0.069	inactive: 0.076	inactive: -0.051	inactive: -0.003	inactive: -0.041	inactive: -0.007	inactive: 0.039	inactive: -0.06	inactive: 0.146	inactive: -0.093	inactive: -0.011	inactive: 0.075	inactive: -0.027	active: -0.234	inactive: -0.054	inactive: 0.028
COX11 (UniProt Q9Y6N1)	inactive: 0.105	inactive: 0.024	inactive: -0.018	inactive: -0.01	inactive: 0.02	inactive: -0.062	inactive: 0.011	inactive: 0.066	inactive: 0.016	inactive: -0.051	inactive: 0.042	inactive: -0.023	inactive: 0.021	inactive: -0.007	inactive: -0.031	inactive: -0.026	inactive: -0.053	inactive: -0.065	inactive: 0.03	inactive: -0.043
COPS3 (UniProt Q9UNS2)	inactive: -0.033	inactive: 0.024	inactive: -0.019	inactive: -0.015	inactive: 0.005	inactive: 0.001	inactive: -0.037	inactive: -0.036	inactive: 0.006	inactive: 0.014	inactive: -0.017	inactive: 0.005	inactive: 0.004	inactive: -0.053	inactive: -0.005	inactive: 0.037	inactive: -0.015	inactive: -0.007	inactive: 0.008	inactive: 0.038
CRACR2A isoform 2 (UniProt Q9BSW2)	inactive: 0.013	inactive: -0.039	inactive: -0.026	inactive: -0.024	inactive: -0.029	inactive: 0.035	inactive: 0.056	inactive: 0.029	inactive: 0.055	inactive: 0.009	inactive: -0.012	inactive: 0.037	inactive: -0.035	inactive: 0.005	inactive: -0.036	inactive: -0.074	inactive: -0.06	inactive: -0.052	inactive: 0.048	inactive: -0.028
COX6C (UniProt P09669)	inactive: -0.053	inactive: 0	inactive: 0.009	inactive: 0.034	inactive: 0.016	inactive: -0.004	inactive: -0.038	inactive: 0.018	inactive: 0.008	inactive: -0.069	inactive: -0.014	inactive: -0.011	inactive: 0.078	inactive: -0.109	inactive: -0.039	inactive: 0.021	inactive: -0.035	inactive: -0.026	inactive: -0.008	inactive: 0.027
CNPY3 (UniProt Q9BT09)	inactive: 0.01	inactive: 0.015	inactive: 0.009	inactive: -0.061	inactive: 0.029	inactive: -0.031	inactive: -0.074	inactive: -0.016	inactive: 0.002	inactive: 0.178	inactive: -0.025	inactive: -0.028	inactive: 0.061	inactive: 0.027	inactive: 0.012	inactive: -0.015	inactive: -0.021	inactive: -0.003	inactive: 0.066	inactive: -0.019

In another format: entries from further up.
Target,log2 fold change [1],log2 fold change [2],log2 fold change [3],log2 fold change [4],log2 fold change [5],log2 fold change [6],log2 fold change [7],log2 fold change [8],log2 fold change [9],log2 fold change [10],log2 fold change [11],log2 fold change [12],log2 fold change [13],log2 fold change [14],log2 fold change [15],log2 fold change [16],log2 fold change [17],log2 fold change [18],log2 fold change [19],log2 fold change [20]
COPS8 (UniProt Q99627),inactive: -0.006,inactive: 0.069,inactive: -0.005,inactive: 0.03,inactive: 0.084,inactive: 0.019,inactive: 0.053,inactive: 0.045,inactive: 0.002,inactive: -0.077,inactive: 0.022,inactive: -0.002,inactive: 0,inactive: -0.002,inactive: 0.018,inactive: 0.004,inactive: 0.027,inactive: 0.014,inactive: -0.01,inactive: 0.009
CORO1A (UniProt P31146),inactive: 0,inactive: -0.02,inactive: 0.013,inactive: -0.034,inactive: 0.037,inactive: -0.051,inactive: 0.144,inactive: -0.018,inactive: -0.021,inactive: -0.037,inactive: -0.018,inactive: -0.058,inactive: -0.008,inactive: -0.069,inactive: 0.038,inactive: 0.037,inactive: 0.089,inactive: 0.009,inactive: -0.028,inactive: -0.001
